Reference: the supplement of paper PMC10849652
The list shows a part of the results.

By UniProt entry, the sequences of proteins in these tests, tags left out. Where a name states a change or a piece, a line headed by the entry shows the natural chain unless it says otherwise.
UniProt Q9NW68: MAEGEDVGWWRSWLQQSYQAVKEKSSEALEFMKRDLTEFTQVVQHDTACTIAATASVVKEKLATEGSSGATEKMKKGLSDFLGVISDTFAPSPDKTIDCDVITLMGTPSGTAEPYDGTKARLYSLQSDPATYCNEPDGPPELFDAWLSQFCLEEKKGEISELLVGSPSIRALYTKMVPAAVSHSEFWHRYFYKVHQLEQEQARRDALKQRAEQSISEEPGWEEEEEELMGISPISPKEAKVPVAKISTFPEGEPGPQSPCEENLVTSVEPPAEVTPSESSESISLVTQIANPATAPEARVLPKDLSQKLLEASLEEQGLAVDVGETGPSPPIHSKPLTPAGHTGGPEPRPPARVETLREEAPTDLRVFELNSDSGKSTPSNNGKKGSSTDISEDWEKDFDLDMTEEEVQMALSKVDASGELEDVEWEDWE
UniProt Q92843: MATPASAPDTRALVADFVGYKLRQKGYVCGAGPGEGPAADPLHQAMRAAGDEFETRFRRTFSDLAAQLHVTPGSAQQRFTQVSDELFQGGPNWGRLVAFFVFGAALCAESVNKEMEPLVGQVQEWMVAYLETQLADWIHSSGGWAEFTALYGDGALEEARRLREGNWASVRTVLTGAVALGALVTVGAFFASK
UniProt O75934: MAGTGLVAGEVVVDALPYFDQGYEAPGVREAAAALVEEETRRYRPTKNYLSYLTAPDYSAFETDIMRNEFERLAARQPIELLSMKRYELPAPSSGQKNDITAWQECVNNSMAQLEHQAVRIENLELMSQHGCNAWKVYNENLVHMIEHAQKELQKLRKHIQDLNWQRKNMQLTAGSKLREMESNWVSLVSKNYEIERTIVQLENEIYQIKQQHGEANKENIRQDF
UniProt P46379: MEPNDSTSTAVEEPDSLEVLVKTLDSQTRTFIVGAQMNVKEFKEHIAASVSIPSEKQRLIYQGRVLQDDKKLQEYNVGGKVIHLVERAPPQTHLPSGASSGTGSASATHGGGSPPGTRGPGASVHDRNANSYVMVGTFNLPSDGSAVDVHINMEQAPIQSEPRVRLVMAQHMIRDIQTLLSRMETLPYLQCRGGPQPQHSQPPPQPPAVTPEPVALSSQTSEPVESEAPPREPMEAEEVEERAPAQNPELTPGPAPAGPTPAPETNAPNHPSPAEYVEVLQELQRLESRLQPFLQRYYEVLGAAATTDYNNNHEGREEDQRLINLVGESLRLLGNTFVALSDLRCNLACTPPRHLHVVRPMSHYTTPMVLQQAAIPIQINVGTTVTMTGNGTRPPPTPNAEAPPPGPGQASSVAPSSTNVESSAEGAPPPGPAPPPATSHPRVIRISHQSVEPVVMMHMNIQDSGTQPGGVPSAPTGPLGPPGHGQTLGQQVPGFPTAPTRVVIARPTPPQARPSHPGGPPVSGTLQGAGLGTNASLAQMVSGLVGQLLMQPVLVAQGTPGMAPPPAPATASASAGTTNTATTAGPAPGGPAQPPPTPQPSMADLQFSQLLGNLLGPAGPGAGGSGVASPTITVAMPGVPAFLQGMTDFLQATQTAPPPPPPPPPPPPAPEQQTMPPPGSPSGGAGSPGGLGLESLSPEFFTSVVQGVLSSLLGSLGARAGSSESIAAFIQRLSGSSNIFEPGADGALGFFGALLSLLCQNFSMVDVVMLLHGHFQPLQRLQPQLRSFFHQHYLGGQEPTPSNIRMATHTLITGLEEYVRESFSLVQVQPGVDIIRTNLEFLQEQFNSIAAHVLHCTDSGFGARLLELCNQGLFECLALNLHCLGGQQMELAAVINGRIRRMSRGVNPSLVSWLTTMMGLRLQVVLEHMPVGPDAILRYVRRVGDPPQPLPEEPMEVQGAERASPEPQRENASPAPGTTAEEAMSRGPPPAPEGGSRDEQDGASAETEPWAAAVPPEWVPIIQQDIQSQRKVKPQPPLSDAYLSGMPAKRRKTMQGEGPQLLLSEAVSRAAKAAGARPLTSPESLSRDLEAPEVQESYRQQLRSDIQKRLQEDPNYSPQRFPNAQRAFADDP
UniProt Q07812, whole entry, looked up: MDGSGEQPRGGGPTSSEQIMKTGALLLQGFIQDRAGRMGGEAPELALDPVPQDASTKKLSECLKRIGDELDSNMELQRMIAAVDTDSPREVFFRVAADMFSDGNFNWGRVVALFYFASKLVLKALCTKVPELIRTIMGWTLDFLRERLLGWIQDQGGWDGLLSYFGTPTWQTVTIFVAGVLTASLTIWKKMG
UniProt Q99933: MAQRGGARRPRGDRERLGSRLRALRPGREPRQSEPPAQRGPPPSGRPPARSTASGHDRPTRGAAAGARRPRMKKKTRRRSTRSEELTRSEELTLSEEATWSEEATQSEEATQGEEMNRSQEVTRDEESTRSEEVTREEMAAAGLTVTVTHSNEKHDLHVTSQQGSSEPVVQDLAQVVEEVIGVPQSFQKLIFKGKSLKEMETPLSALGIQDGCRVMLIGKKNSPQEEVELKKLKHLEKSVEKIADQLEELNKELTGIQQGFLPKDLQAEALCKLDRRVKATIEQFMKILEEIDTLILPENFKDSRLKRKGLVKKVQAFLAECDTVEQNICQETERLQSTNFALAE
UniProt O75531: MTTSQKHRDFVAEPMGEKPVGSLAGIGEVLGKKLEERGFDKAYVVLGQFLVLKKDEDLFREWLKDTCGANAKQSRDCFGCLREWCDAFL
UniProt Q8WWM7: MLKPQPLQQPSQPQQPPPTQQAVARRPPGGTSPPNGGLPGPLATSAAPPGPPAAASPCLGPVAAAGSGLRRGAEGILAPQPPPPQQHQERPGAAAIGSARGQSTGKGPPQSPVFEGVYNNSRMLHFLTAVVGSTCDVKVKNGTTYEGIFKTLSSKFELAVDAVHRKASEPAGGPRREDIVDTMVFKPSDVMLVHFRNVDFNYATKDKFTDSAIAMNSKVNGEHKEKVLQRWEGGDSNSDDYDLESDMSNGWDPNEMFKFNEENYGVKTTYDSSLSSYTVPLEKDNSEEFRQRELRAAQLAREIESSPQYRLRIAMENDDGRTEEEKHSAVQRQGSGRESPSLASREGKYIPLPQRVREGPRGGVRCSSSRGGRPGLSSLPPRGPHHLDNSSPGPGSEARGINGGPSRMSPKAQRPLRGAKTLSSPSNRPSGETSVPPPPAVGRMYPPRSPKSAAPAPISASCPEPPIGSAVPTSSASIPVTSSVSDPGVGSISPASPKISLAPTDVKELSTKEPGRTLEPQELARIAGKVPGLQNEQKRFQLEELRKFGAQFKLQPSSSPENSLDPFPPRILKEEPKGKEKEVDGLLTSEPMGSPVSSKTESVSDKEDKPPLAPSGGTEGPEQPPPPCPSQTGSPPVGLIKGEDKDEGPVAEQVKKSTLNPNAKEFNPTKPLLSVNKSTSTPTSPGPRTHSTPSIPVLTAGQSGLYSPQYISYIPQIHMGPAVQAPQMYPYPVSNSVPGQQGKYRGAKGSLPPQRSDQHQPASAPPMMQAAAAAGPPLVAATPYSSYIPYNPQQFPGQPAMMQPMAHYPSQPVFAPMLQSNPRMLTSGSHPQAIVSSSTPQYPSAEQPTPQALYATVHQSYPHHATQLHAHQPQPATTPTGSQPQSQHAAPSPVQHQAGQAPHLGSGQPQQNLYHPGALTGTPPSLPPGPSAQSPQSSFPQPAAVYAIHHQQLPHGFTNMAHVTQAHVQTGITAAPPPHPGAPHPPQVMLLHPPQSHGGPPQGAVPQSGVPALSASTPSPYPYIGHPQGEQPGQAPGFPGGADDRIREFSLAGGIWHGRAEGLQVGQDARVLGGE
UniProt P25311: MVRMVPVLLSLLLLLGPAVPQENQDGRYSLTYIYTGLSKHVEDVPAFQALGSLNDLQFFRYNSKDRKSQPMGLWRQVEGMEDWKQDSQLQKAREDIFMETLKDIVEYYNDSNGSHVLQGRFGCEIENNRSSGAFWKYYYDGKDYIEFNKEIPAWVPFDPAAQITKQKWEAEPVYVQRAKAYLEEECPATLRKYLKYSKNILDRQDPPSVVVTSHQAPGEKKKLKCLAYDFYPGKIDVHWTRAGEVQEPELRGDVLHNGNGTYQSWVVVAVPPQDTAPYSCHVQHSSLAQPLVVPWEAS
UniProt O95429: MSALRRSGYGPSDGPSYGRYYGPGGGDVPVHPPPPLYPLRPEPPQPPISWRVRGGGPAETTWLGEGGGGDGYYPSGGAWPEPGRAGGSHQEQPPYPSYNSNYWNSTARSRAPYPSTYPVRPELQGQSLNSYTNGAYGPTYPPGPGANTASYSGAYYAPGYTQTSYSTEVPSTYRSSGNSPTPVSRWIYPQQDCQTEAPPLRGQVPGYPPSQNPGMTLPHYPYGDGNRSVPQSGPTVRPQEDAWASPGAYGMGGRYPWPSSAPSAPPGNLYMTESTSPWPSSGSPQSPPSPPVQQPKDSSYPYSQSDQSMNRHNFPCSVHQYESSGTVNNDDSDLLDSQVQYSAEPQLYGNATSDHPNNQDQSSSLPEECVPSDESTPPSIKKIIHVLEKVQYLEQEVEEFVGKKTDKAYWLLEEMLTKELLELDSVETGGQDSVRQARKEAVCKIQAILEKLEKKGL
UniProt P07738: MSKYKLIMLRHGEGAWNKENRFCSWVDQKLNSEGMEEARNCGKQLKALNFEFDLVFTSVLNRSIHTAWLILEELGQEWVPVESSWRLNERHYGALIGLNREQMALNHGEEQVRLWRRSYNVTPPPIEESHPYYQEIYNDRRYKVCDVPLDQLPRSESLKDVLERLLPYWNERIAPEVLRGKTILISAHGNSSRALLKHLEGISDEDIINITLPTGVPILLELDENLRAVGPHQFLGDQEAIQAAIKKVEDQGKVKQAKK
UniProt Q6Y288: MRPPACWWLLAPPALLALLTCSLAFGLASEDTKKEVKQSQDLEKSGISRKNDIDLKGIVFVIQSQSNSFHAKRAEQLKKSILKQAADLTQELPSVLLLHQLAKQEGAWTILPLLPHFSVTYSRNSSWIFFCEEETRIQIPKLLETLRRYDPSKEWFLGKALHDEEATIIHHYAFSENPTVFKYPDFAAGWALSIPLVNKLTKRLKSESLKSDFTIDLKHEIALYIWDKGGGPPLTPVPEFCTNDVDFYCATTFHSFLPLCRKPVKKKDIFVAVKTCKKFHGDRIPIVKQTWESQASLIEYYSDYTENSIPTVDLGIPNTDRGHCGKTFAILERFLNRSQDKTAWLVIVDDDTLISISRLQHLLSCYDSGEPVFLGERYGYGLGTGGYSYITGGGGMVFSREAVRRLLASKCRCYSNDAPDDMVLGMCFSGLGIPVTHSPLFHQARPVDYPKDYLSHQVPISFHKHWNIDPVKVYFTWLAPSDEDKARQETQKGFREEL
UniProt Q6QNY1: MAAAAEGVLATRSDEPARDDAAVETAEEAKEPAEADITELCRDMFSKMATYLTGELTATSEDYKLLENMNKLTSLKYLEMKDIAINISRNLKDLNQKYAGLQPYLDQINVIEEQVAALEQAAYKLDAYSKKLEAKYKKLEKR
UniProt P15291: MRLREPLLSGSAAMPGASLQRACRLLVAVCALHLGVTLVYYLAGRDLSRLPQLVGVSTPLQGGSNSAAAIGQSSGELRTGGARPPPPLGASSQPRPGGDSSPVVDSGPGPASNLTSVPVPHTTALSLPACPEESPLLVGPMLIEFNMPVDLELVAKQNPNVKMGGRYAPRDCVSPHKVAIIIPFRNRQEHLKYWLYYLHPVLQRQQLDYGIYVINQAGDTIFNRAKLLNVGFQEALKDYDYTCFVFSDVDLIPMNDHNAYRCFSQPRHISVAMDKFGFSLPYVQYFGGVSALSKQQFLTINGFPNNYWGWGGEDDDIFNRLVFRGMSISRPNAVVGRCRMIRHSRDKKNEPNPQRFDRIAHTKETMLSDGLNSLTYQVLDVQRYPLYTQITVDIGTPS
UniProt Q14457, whole entry, looked up: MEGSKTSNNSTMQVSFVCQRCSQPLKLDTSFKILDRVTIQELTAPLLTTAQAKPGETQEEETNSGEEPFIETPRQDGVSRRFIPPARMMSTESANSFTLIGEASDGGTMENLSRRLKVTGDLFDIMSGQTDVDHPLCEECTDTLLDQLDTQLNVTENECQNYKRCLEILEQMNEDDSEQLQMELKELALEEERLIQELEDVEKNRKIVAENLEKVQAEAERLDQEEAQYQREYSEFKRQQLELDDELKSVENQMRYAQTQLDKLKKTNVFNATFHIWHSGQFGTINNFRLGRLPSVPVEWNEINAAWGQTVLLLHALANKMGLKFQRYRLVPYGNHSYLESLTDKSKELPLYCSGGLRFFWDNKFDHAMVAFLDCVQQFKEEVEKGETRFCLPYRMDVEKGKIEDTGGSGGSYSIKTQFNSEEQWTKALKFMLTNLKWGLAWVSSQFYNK

Key:
Test in all cases: log2 fold change, soluble protein after heating vs DMSO (PISA); higher = thermal stabilisation; K562 cells, 10 uM, 30 min; active = over 0.2 and 3.5 SD of the protein, either way, in both replicates (recomputed)
[1] = compound: CC1=C(C=C(C=C1)NC(=O)C2=CC(=CC=C2)C(C)(C)C#N)NC3=CC4=C(C=C3)N=CN(C4=O)C
Outline: (§1)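 Values are thermal stability changes relative to control samples and are taken from duplicates. They are stated as log2 fold changes. Before quantification by TMTpro 16plex LC-MS/MS with equalised channel sums, K562 cells at 2×10^6 cells/mL were treated with 10 μM compound for 30 min, heated in aliquots for 3 min across 48°C-58°C, pooled, extracted in PBS with 0.5% NP-40 at 4°C, and centrifuged at 21,000xg for 90 min to give the soluble supernatant.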

[2] = compound: CC1=C(C=C(C=C1)NC(=O)C2=CC(=CC=C2)N(C)C)NC(=O)C3=CC=C(C=C3)O
Outline: as §1

[3] = compound: CC1=CC=C(C=C1)SC2=C3C=C(SC3=CN=C2)C(=O)N
Outline: as §1

[4] = compound: CC1=NC(=CC=C1)C2=C(N=C(N2)C(C)(C)C)C3=CC4=NC=CN=C4C=C3
Outline: as §1

[5] = compound: CCCCN(Cc1ccc(C(=O)NO)cc1)C(=O)Nc1ccccc1 [Nexturastat A]
Outline: as §1

[6] = compound: CCCS(=O)(=O)Nc1ccc(F)c(C(=O)c2c[nH]c3ncc(-c4ccc(Cl)cc4)cc23)c1F [vemurafenib]
Outline: as §1

[7] = compound: CCCS(=O)(=O)Nc1ccc(F)c(C(=O)c2c[nH]c3ncc(Cl)cc23)c1F
Outline: as §1

[8] = compound: CCCc1cc(C)[nH]c(=O)c1CNC(=O)c1cc(-c2ccnc(N3CCN(C)CC3)c2)cc2c1cnn2C(C)C
Outline: as §1

[9] = compound: CCN(CC)Cc1ccc2cc(COC(=O)Nc3ccc(C(=O)NO)cc3)ccc2c1 [givinostat]
Outline: as §1

[10] = compound: CCN(CCCOc1ccc2c(Nc3cc(CC(=O)Nc4cccc(F)c4)[nH]n3)ncnc2c1)CCOP(=O)(O)O [barasertib]
Outline: as §1

[11] = compound: CC[C@@H]1C(=O)N(C)c2cnc(Nc3ccc(C(=O)NC4CCN(C)CC4)cc3OC)nc2N1C1CCCC1
Outline: as §1

[12] = compound: CC[C@@H]1C(=O)N(C)c2cnc(Nc3ccc(C(=O)N[C@H]4CC[C@H](N5CCN(CC6CC6)CC5)CC4)cc3OC)nc2N1C(C)C [volasertib]
Outline: as §1

[13] = compound: CC[C@H](C)N1C=C(C2=C(C=C(C=C21)C3=CN=C(C=C3)N4CCNCC4)C(=O)NCC5=C(C=C(NC5=O)C)C)C
Outline: as §1

[14] = compound: CC[C@H](C)[C@@H](C(=O)N[C@@H]([C@@H](C)O)C(=O)N[C@@H](CC(C)C)C(=O)[C@]1(CO1)C)NC(=O)[C@H]([C@@H](C)CC)N(C)C(=O)C [epoxomicin]
Outline: as §1

[15] = compound: CCn1c(C(=O)N(C2CC2)C2CC2)cc2c3c(ncn3C)c(Nc3cc(C)n(C)n3)nc21
Outline: as §1

[16] = compound: CCn1cc(-c2ccnc3[nH]c(-c4cccc(CN(C)C)c4)cc23)c(-c2ccc(NC(=O)N(C)C)cc2)n1
Outline: as §1

[17] = compound: CN(C)CC(=O)Nc1ccc2[nH]c(=O)c3ccccc3c2c1
Outline: as §1

[18] = compound: CN(CCOC1=CC=C(C=C1)C[C@H]2C(=O)NC(=O)S2)C3=CC=CC=N3 (racemic) [rosiglitazone]
Outline: as §1

[19] = compound: CN1C2=C(C3=C1C(=O)N(N=C3)CC4=CC(=CC=C4)N)SC(=C2)S(=O)C
Outline: as §1

[20] = compound: CN1CCC(CNc2ccc3ncc(-c4cccc(OC(F)(F)F)c4)n3n2)CC1
Outline: as §1

Row | Target | log2 fold change [1] | log2 fold change [2] | log2 fold change [3] | log2 fold change [4] | log2 fold change [5] | log2 fold change [6] | log2 fold change [7] | log2 fold change [8] | log2 fold change [9] | log2 fold change [10] | log2 fold change [11] | log2 fold change [12] | log2 fold change [13] | log2 fold change [14] | log2 fold change [15] | log2 fold change [16] | log2 fold change [17] | log2 fold change [18] | log2 fold change [19] | log2 fold change [20]
1 | BSDC1 (UniProt Q9NW68) | inactive: -0.032 | inactive: 0.005 | inactive: 0.031 | inactive: 0.045 | inactive: -0.006 | inactive: 0.023 | inactive: 0.02 | inactive: -0.028 | inactive: -0.018 | inactive: -0.013 | inactive: -0.054 | inactive: -0.215 | inactive: 0.014 | inactive: -0.006 | inactive: 0.038 | inactive: 0.017 | inactive: -0.021 | inactive: 0.014 | inactive: -0.021 | inactive: -0.098
2 | BCL2L2 isoform 2 (UniProt Q92843) | inactive: 0.07 | inactive: 0.044 | inactive: -0.017 | inactive: 0.087 | inactive: 0.073 | inactive: -0.003 | inactive: -0.009 | inactive: -0.031 | inactive: -0.028 | inactive: -0.043 | inactive: 0.15 | inactive: 0.011 | inactive: -0.03 | inactive: -0.105 | inactive: -0.021 | inactive: 0.131 | inactive: -0.027 | inactive: -0.036 | inactive: 0.111 | inactive: 0.133
3 | BCAS2 (UniProt O75934) | inactive: -0.02 | inactive: -0.073 | inactive: -0.012 | inactive: -0.024 | inactive: 0.08 | inactive: 0.033 | inactive: -0.015 | inactive: -0.02 | inactive: 0.016 | inactive: 0.043 | inactive: -0.013 | inactive: -0.223 | inactive: -0.015 | inactive: -0.006 | inactive: -0.013 | inactive: 0.077 | inactive: -0.052 | inactive: -0.022 | inactive: -0.028 | inactive: 0.053
4 | BAG6 isoform 3 (UniProt P46379) | inactive: -0.021 | inactive: -0.02 | inactive: 0.025 | inactive: 0.016 | inactive: -0.01 | inactive: 0.035 | inactive: 0.076 | inactive: 0.009 | inactive: 0.014 | inactive: 0.025 | inactive: -0.05 | inactive: -0.173 | inactive: 0.058 | inactive: 0.03 | inactive: -0.009 | inactive: 0.005 | inactive: 0.006 | inactive: 0.036 | inactive: 0.019 | inactive: -0.039
5 | BAX isoform 2 (UniProt Q07812) | inactive: 0.023 | inactive: -0.014 | inactive: 0.019 | inactive: 0.045 | inactive: 0.101 | inactive: -0.043 | inactive: -0.004 | inactive: -0.058 | inactive: -0.017 | inactive: 0.043 | inactive: 0.017 | inactive: -0.007 | inactive: -0.055 | inactive: 0.026 | inactive: 0.004 | inactive: 0.025 | inactive: 0.049 | inactive: 0.014 | inactive: -0.037 | inactive: 0.035
6 | BAG1 (UniProt Q99933) | inactive: -0.014 | inactive: 0.044 | inactive: 0.013 | inactive: 0.019 | inactive: -0.024 | inactive: 0 | inactive: 0.005 | inactive: -0.025 | inactive: -0.007 | inactive: -0.003 | inactive: 0.037 | inactive: -0.022 | inactive: 0.004 | inactive: -0.022 | inactive: 0.017 | inactive: -0.012 | inactive: 0.001 | inactive: -0.002 | inactive: 0.025 | inactive: 0.021
7 | BANF1 (UniProt O75531) | inactive: -0.011 | inactive: -0.092 | inactive: 0.031 | inactive: 0.026 | inactive: -0.057 | inactive: 0.073 | inactive: -0.093 | inactive: -0.06 | inactive: -0.034 | inactive: 0.055 | inactive: 0.041 | inactive: -0.019 | inactive: -0.012 | inactive: 0.185 | inactive: -0.019 | inactive: -0.035 | inactive: -0.01 | inactive: 0.03 | inactive: -0.068 | inactive: 0.178
8 | ATXN2L (UniProt Q8WWM7) | inactive: 0.033 | inactive: 0.017 | inactive: 0.006 | inactive: 0.026 | inactive: 0.066 | inactive: 0.006 | inactive: 0.033 | inactive: -0.002 | inactive: 0.016 | inactive: 0.005 | inactive: -0.015 | inactive: -0.031 | inactive: 0.021 | inactive: 0 | inactive: -0.007 | inactive: 0.021 | inactive: -0.021 | inactive: 0.007 | inactive: 0.017 | inactive: -0.029
9 | AZGP1 (UniProt P25311) | inactive: -0.004 | inactive: -0.082 | inactive: 0.403 | inactive: -0.25 | inactive: 0.195 | inactive: -0.101 | inactive: -0.164 | inactive: -0.108 | inactive: -0.18 | inactive: 0.176 | inactive: 0.083 | inactive: 0.169 | inactive: 0.292 | inactive: 0.914 | inactive: -0.113 | inactive: -0.075 | inactive: 0.474 | inactive: 0.458 | inactive: 0.592 | inactive: -0.257
10 | BAG4 (UniProt O95429) | inactive: -0.052 | inactive: 0.026 | inactive: -0.02 | inactive: 0.043 | inactive: 0 | inactive: 0.015 | inactive: 0.019 | inactive: -0.045 | inactive: -0.057 | inactive: -0.006 | inactive: -0.015 | inactive: -0.061 | inactive: 0.047 | inactive: 0.023 | inactive: 0.089 | inactive: -0.022 | inactive: -0.03 | inactive: 0.056 | inactive: -0.112 | inactive: -0.052
11 | BPGM (UniProt P07738) | inactive: -0.044 | inactive: 0 | inactive: -0.019 | inactive: 0.035 | inactive: 0.016 | inactive: -0.068 | inactive: -0.122 | inactive: -0.103 | inactive: -0.015 | inactive: 0.051 | inactive: 0.028 | inactive: 0.027 | inactive: -0.022 | inactive: -0.004 | inactive: -0.046 | inactive: -0.011 | inactive: 0.041 | inactive: 0.024 | inactive: -0.069 | inactive: -0.018
12 | B3GLCT (UniProt Q6Y288) | inactive: 0.023 | inactive: 0.033 | inactive: 0.005 | inactive: 0.02 | inactive: -0.059 | inactive: -0.023 | inactive: 0.077 | inactive: 0.197 | inactive: -0.036 | inactive: -0.013 | inactive: -0.038 | inactive: 0.152 | inactive: -0.024 | inactive: 0.101 | inactive: 0.027 | inactive: -0.025 | inactive: -0.009 | inactive: 0.071 | inactive: 0.007 | inactive: 0.117
13 | BOD1L1 (UniProt Q8NFC6) | inactive: -0.03 | inactive: 0.019 | inactive: -0.044 | inactive: -0.056 | inactive: 0.08 | inactive: -0.013 | inactive: -0.02 | inactive: 0.022 | inactive: -0.009 | inactive: 0 | inactive: 0.101 | inactive: 0.082 | inactive: 0.038 | inactive: -0.061 | inactive: -0.008 | inactive: 0.055 | inactive: -0.04 | inactive: 0.01 | inactive: 0.081 | inactive: 0.045
14 | BLOC1S2 (UniProt Q6QNY1) | inactive: -0.101 | inactive: 0.02 | inactive: 0.093 | inactive: 0.108 | inactive: 0.02 | inactive: -0.022 | inactive: 0.075 | inactive: -0.218 | inactive: -0.145 | inactive: 0.003 | inactive: 0.063 | inactive: -0.033 | inactive: -0.007 | inactive: 0.131 | inactive: -0.024 | inactive: -0.019 | inactive: -0.096 | inactive: 0 | inactive: -0.002 | inactive: -0.021
15 | B4GALT1 (UniProt P15291) | inactive: -0.009 | inactive: -0.027 | inactive: 0.002 | inactive: -0.05 | inactive: -0.022 | inactive: 0.035 | inactive: 0.012 | inactive: -0.044 | inactive: -0.113 | inactive: -0.01 | active: -0.324 | active: -0.571 | inactive: 0.033 | inactive: 0.051 | – | inactive: -0.048 | inactive: -0.03 | – | inactive: -0.081 | active: -0.28
16 | BECN1 (UniProt Q14457) | inactive: -0.04 | inactive: 0.029 | inactive: 0 | inactive: 0.04 | inactive: 0.015 | inactive: 0.055 | inactive: -0.01 | inactive: -0.024 | inactive: -0.018 | inactive: -0.012 | inactive: 0.069 | inactive: -0.003 | inactive: 0.029 | inactive: 0.07 | – | inactive: -0.107 | inactive: -0.003 | – | inactive: 0.024 | inactive: 0.009

From no. 4 to 7, as listed above:
Row | Target | log2 fold change [1] | log2 fold change [2] | log2 fold change [3] | log2 fold change [4] | log2 fold change [5] | log2 fold change [6] | log2 fold change [7] | log2 fold change [8] | log2 fold change [9] | log2 fold change [10] | log2 fold change [11] | log2 fold change [12] | log2 fold change [13] | log2 fold change [14] | log2 fold change [15] | log2 fold change [16] | log2 fold change [17] | log2 fold change [18] | log2 fold change [19] | log2 fold change [20]
4 | BAG6 isoform 3 (UniProt P46379) | inactive: -0.021 | inactive: -0.02 | inactive: 0.025 | inactive: 0.016 | inactive: -0.01 | inactive: 0.035 | inactive: 0.076 | inactive: 0.009 | inactive: 0.014 | inactive: 0.025 | inactive: -0.05 | inactive: -0.173 | inactive: 0.058 | inactive: 0.03 | inactive: -0.009 | inactive: 0.005 | inactive: 0.006 | inactive: 0.036 | inactive: 0.019 | inactive: -0.039
5 | BAX isoform 2 (UniProt Q07812) | inactive: 0.023 | inactive: -0.014 | inactive: 0.019 | inactive: 0.045 | inactive: 0.101 | inactive: -0.043 | inactive: -0.004 | inactive: -0.058 | inactive: -0.017 | inactive: 0.043 | inactive: 0.017 | inactive: -0.007 | inactive: -0.055 | inactive: 0.026 | inactive: 0.004 | inactive: 0.025 | inactive: 0.049 | inactive: 0.014 | inactive: -0.037 | inactive: 0.035
6 | BAG1 (UniProt Q99933) | inactive: -0.014 | inactive: 0.044 | inactive: 0.013 | inactive: 0.019 | inactive: -0.024 | inactive: 0 | inactive: 0.005 | inactive: -0.025 | inactive: -0.007 | inactive: -0.003 | inactive: 0.037 | inactive: -0.022 | inactive: 0.004 | inactive: -0.022 | inactive: 0.017 | inactive: -0.012 | inactive: 0.001 | inactive: -0.002 | inactive: 0.025 | inactive: 0.021
7 | BANF1 (UniProt O75531) | inactive: -0.011 | inactive: -0.092 | inactive: 0.031 | inactive: 0.026 | inactive: -0.057 | inactive: 0.073 | inactive: -0.093 | inactive: -0.06 | inactive: -0.034 | inactive: 0.055 | inactive: 0.041 | inactive: -0.019 | inactive: -0.012 | inactive: 0.185 | inactive: -0.019 | inactive: -0.035 | inactive: -0.01 | inactive: 0.03 | inactive: -0.068 | inactive: 0.178
